# From article PMC9646512
# Legend:
# [1] = tested on: native human alpha-thrombin (Homo sapiens); test: structure-switching fluorescence; details: 37 C, ITC: 20 mM HEPES-NaOH, 150 mM NaCl, 5 mM KCl, 2 mM MgCl2, 1 mM CaCl2, pH 7.4, 25 C, commercial protein
# [2] = tested on: native human alpha-thrombin (Homo sapiens); test: aptamer western blot; details: SDS-PAGE, nitrocellulose, 500 nM aptamer; all L-DNA (mirror image); commercial protein; label: 5'-Cy5; synthetic backbone
# [3] = tested on: streptavidin; test: aptamer western blot; details: SDS-PAGE, nitrocellulose, 500 nM aptamer; all L-DNA (mirror image); commercial protein; label: 5'-Cy5; synthetic backbone
# [4] = tested on: streptavidin; test: ITC; details: all L-DNA (mirror image); ITC: 20 mM HEPES-NaOH, 150 mM NaCl, 5 mM KCl, 2 mM MgCl2, 1 mM CaCl2, pH 7.4, 25 C; commercial protein; synthetic backbone
# [5] = tested on: native human alpha-thrombin (Homo sapiens); test: thrombin activity inhibition; details: no inhibition, direct binding not tested; natural D-DNA; commercial protein; folded or branched DNA
# [6] = tested on: native bovine alpha-thrombin (Bos taurus (bovine)); test: structure-switching fluorescence; details: 1 uM protein; all L-DNA (mirror image); ITC: 20 mM HEPES-NaOH, 150 mM NaCl, 5 mM KCl, 2 mM MgCl2, 1 mM CaCl2, pH 7.4, 25 C; commercial protein; synthetic backbone
# [7] = tested on: streptavidin; test: structure-switching fluorescence; details: 1 uM protein; all L-DNA (mirror image); ITC: 20 mM HEPES-NaOH, 150 mM NaCl, 5 mM KCl, 2 mM MgCl2, 1 mM CaCl2, pH 7.4, 25 C; commercial protein; synthetic backbone
sequence,measurement,setting,value
CGGATCCAGTTACGGACTGAACAGAAGGGTGGTGTGGTTGGACTGTTCA / TCCGTAACTGGATCCG / ACCCTTCTGTTCA [D-DNA aptamer sensor],binding result,[1],binds
GATGAACTTGTTGAAACCCAACGGGAGCCTCGTTCATT [Cy5-L-13t aptamer],binding result,[2],binds
same,binding result,[3],no binding
GATGAACTTGTTGAAACCCAACGGGAGAATCGTTCATT [L-9-2t aptamer],binding result,[4],no binding
ACGGAACGCGTTTCAAGACTACCGTGTTTGTTCCGT [L-9-1t aptamer],binding result,[4],no binding
GATGAACTTGTTGAAACCCAACGGGAGCCTCGTTCATT [D-L-13t],IC50,[5],> 8 µM
CAGCTCGGATCCAGTTACGGAACGCGTTTCAAGACTACCGTGTTTGTTCCGT / ACTGGATCCGAGCTG / ACGCGTTCCGT [L-DNA aptamer sensor],binding result,"[1]; all L-DNA (mirror image), synthetic backbone",binds
same,binding result,[6],no binding
same,binding result,[7],no binding

# For part of these data: No signal at the amounts used counts as a negative. For part of these data: The exact form of at least one protein or probe is not confirmed. For part of these data: At least one verdict was read from the data and is not stated in words by the source.
